± gives the standard deviation. Only a part is listed here, and it is no random draw. The uncertainty is large for many entries.
Test system: EfPiwi piRISC loaded with piRNA #1 (26 nt)
Assay: pre-steady-state target cleavage rate (min^-1); guide: piRNA #1 5'p-UGAGGUAGUAGGUUGUAUAGUAUCCA; MIWI and MILI are mouse PIWI proteins and EfPiwi is from a freshwater sponge; tags in brackets are library labels; higher = faster piRNA-guided slicing of the target
Settings: auxiliary factor: 500 nM Ephydatia muelleri Gtsf1
In short: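 Cleave-'n-Seq: a transcribed, DNA-blocked target RNA library (0.1 nM) was mixed with 1 nM active affinity-purified piRISC carrying one synthetic guide, with or without 500 nM GTSF1 partner protein, in HEPES–potassium acetate buffer at 33 °C for 0–8 or 0–960 min. Uncleaved targets were sequenced and normalised to depth and to weakly complementary targets. Three trials were pooled, and k3 was capped at 0.0001 min^-1. The pre-steady-state cleavage rate came from a burst-and-steady-state fit.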

Sequence | pre-steady-state target cleavage rate
GGAGACCUAUCUUUACAAGCUACUACCUCA | 0.0024 ± 0.0047
GGAGACCAUACUAUACAACCUAGUACCACA | 0.00199 ± 0.0028
GGAGACCUUAGUAUACAACCUACUACCUCA | 0.0563 ± 0.02
GGAGUGGAACUAUACAACCUACUACCUCA | 0.00244 ± 0.0056
GGAGACCUAAGUAUACAACCUACUACCUGA | 0.00237 ± 0.0032
GGAGACGAUACUAAACAACCAACUACCUCA | 0.0024 ± 0.0017
GGAGACCUAUCUAUACAACCUACUGACCUCA | 0.00107 ± 0.0085
GGAGUGGAUACUAUACAACCUACUACCUCA [g2:g26:cont:t1A] | 0.176 ± 0.056
GGAGACCUAACUAUACAACCUACUACGCUCA | 0.00453 ± 0.0049
GGAGAGGUUACUAUAGAACCUACUACCUCA | 0.00277 ± 0.0023
GGAGACCUUACUAUACAACAUACUACCUCA | 0.00974 ± 0.0063
GGAGAGGAUACUUAACAACCUACUACCUCA | 0.00417 ± 0.0044
GGAGACCUAACUAUUGAACCUACUACCUCA | 0.00116 ± 0.0071
GGAGACCUAUGUGAUACAACCUACUACCUCA | 0.0129 ± 0.0064
GGAGACCUUACUAUAGAACCUACUACGUCA | 0.000695 ± 0.0037
GGAGACCUAUGAUAACAACCUACUAGGUCA | 0.000128 ± 0.014
GGAGACCAUACUAUACAACCUACUACCUCA [g2:g23:cont:t1A] | 0.0141 ± 0.0046
GGAGACCUAUCUAUACAACCUACUAGCUCA | 0.00116 ± 0.0027
GGAGACCAUACUAUAUAACCUACUACCUCA | 0.00757 ± 0.0042
GGAGACCUAUGUAUACAACCUACUGCCUCA | 0.00182 ± 0.0051

Single values from the results shown.
For pre-steady-state target cleavage rate, GGAGUGGAUACUAUACAACCUACUACCUCA [g2:g26:cont:t1A] shows 0.176 ± 0.056
For pre-steady-state target cleavage rate, GGAGACCUAACUAUACAACCUACUACGCUCA shows 0.00453 ± 0.0049

Next results

Sequence | pre-steady-state target cleavage rate
GGAGACGAUACAAUACAACCUACUUCCUCA | 0.00147 ± 0.0023
GGAGACCAUACUAUAGAACCUACUACCACA | 0.00204 ± 0.0034
GGAGAGGAUUCUAUACAACCUACUAGCUCA | 0.00109 ± 0.003
GGAGAGGAUACUAAUACAACCUACUACCUCA | 0.128 ± 0.048
GGAGACCUAACUAUACAACCUACCUACCUCA | 0.00259 ± 0.0049
GGAGACCUAAGUAUACAACCUACUACCUCA | 0.00697 ± 0.0037
GGAGUGGAUAGAUUACAACCUACUACCUCA | 0.00432 ± 0.0045
GGAGACCUAUCUAUACAACCUACUACGCUCA | 0.00173 ± 0.0053
GGAGACCUAUGUAUACAACCUACUAGCCUCA | 0.00109 ± 0.0083
GGAGUGCAUACUAUACAACCUACUACCACA | 0.00342 ± 0.0028
GGAGACGAUACUAAACAACCUACUACCUCA | 0.0292 ± 0.012
GGAGACCUAUGAUUACAAGCUACUACCACA | 0.00036 ± 0.011
GGAGACGAUACUAAACAACCUACAACCUCA | 0.0012 ± 0.0025
GGAGAGGAUAGUAUUCAACCUACUACCUCA | 0.0021 ± 0.0038
GGAGACCUUACUAUACAACGUACUACGUCA | 0.00267 ± 0.0018
GGAGACCUAUGUAUACAACCUACUACCUACA | 0.000875 ± 0.01
GGAGACCUUACUAUAACAACCUACUACCUCA | 0.00893 ± 0.0047
GGAGUGGAUACUAUACUACCUACUAGCUCA | 0.0027 ± 0.0021
GGAGACCUUACUAUACAACCUACUACCUGA | 0.00415 ± 0.0019
GGAGACCUAACUAAUCAACCUACUACCUCA | 0.00211 ± 0.0042
